Construct, isoform or probe ends are uncertain for at least one entry. Negatives hold for the conditions tested. At least one verdict rests on a figure or table, not on a statement of the authors. Tags and fusion partners may be left off the protein sequences shown.

The target in the series is T1, MLDSR (GST-MLDSR) (Rhodococcus jostii RHA1) (UniProt A0A1H4Y2R3).
T1 sequence (looked up, limits assumed): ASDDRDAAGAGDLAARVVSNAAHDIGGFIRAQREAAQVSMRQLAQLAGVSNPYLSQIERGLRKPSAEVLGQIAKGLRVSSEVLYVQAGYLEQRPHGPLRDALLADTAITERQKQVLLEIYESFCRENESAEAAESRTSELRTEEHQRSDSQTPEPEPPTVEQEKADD
The series is described as follows: EMSA. The conditions noted are these: EMSA: 20 mM Tris-HCl pH 7.5, 150 mM NaCl, 5 mM MgCl2, 1 mM EDTA, 1 mM DTT, 4% glycerol, 24 C or room temperature, 30-40 min; recombinant protein; protein details: N-terminal GST; single-stranded DNA. Background: A gel shift assay detects complexes by their altered migration in electrophoresis.

For the sequence “TCCGCTAGCTGGGTGCTAACAGA [motif 2 (+) ssDNA]”, the binding result was “no binding”.

The values are drawn from PMC5504291, “Bacterial lipid droplets bind to DNA via an intermediary protein that enhances survival under stress”.
